Measurements reported in PubChem BioAssay AID330 (DTP/NCI, 2004).
The list shows only some results of the screen, not a fair sample: it is rich in T/C values a quarter to a half above the control, in often repeated tests (any T/C) and in doses without a T/C. Other doses and runs of a compound stand elsewhere. T/C: endpoint of the treated group in % of that of the vehicle group. Some doses have a count of surviving animals in place of a T/C: the source holds a T/C of zero for them, seemingly a mark for toxic or unscored doses. Some doses without a T/C left all or most animals alive at the check, yet need not have been tolerated: survival well below the control is almost never listed, so the zero probably covers shortened survival too. Counts of survivors are from the toxicity check (mostly the fifth day) where no day follows; animals may have died later. Schedule codes are those of the source, read here as Q, the interval in days (D) or hours (H), X, the number of doses. Signs of the kind (2×) say how often a value occurs here. Some entries hold several experiments; their values stand side by side, smallest first. Where survival is the endpoint, this PubChem deposit counts one and a half times the control or more as active, and values a quarter to a half above the control carry no call in these data; other NCI protocols may use other cut-offs. Some T/C values carry the count of animals alive at the toxicity check (mostly the fifth day); where none is given, no animal had died by that day.

Test system: P388 leukemia ip, CD2F1 mice, survival T/C
Experiment: NCI In Vivo Anticancer Drug Screen. Data for tumor model P388 Leukemia (intraperitoneal) in CD2F1 (CDF1) mice
Details: T/C endpoint: median survival time, higher T/C = longer survival
[1] = dose: 120.0 mg/kg/injection, schedule: Q01DX005 (ip), vehicle: saline with Tween-80
[2] = dose: 240.0 mg/kg/injection, schedule: Q01DX005 (ip), vehicle: saline
[3] = dose: 60.0 mg/kg/injection, schedule: Q01DX005 (ip), vehicle: Klucel (hydroxypropylcellulose) (HPC)
[4] = dose: 240.0 mg/kg/injection, schedule: Q01DX005 (ip), vehicle: Klucel (hydroxypropylcellulose) (HPC)
[5] = dose: 200.0 mg/kg/injection, schedule: Q01DX009 (ip), vehicle: Klucel (hydroxypropylcellulose) (HPC)
[6] = dose: 200.0 mg/kg/injection, schedule: Q01DX005 (ip), vehicle: saline with Tween-80
[7] = dose: 50.0 mg/kg/injection, schedule: Q01DX009 (ip), vehicle: Klucel (hydroxypropylcellulose) (HPC)
[8] = dose: 100.0 mg/kg/injection, schedule: Q01DX009 (ip), vehicle: Klucel (hydroxypropylcellulose) (HPC)

For `N#Cc1ccccc1NC(=O)Nc1ccc(Cl)cc1Cl`, the survivor count (dose: 3.75 mg/kg/injection, schedule: Q01DX005 (ip), vehicle: saline with Tween-80) was 6 of 6 on day 9, the survivor count (dose: 7.5 mg/kg/injection, schedule: Q01DX005 (ip), vehicle: saline with Tween-80) was 6 of 6 on day 9 and the survivor count (dose: 15.0 mg/kg/injection, schedule: Q01DX005 (ip), vehicle: saline with Tween-80) was 6 of 6 and 6 of 6 on day 9. The survivor count (dose: 30.0 mg/kg/injection, schedule: Q01DX005 (ip), vehicle: saline with Tween-80) was 6 of 6, the survivor count (dose: 60.0 mg/kg/injection, schedule: Q01DX005 (ip), vehicle: saline with Tween-80) was 6 of 6 and the survivor count [1] was 6 of 6.
`Nc1nc(Cl)c2[nH]c(Cl)nc2n1` was tested, and the survivor count (dose: 200.0 mg/kg/injection, schedule: Q01DX005 (ip), vehicle: Klucel (hydroxypropylcellulose) (HPC)) was 5 of 5.
For `Cc1oc2ccccc2c(=O)c1CN1CCN(c2ccccn2)CC1`, the survivor count [2] was 0 of 6.
In the case of `O=NN(CCCl)C(=O)Oc1ccc(OC(=O)N(CCCl)N=O)cc1`, the T/C (dose: 12.5 mg/kg/injection, schedule: Q01DX001 (ip), vehicle: Klucel (hydroxypropylcellulose) (HPC)) is reported as 128 % of control, the T/C (dose: 25.0 mg/kg/injection, schedule: Q01DX001 (ip), vehicle: Klucel (hydroxypropylcellulose) (HPC)) is reported as 125 and 135 % of control and the survivor count (dose: 100.0 mg/kg/injection, schedule: Q01DX001 (ip), vehicle: Klucel (hydroxypropylcellulose) (HPC)) is reported as 2 of 6.
For `COc1cc(NS(C)(=O)=O)ccc1Nc1c2ccc([N+](=O)[O-])cc2nc2c(C)c(C)ccc12`, the T/C (dose: 0.1 mg/kg/injection, schedule: Q01DX009 (ip), vehicle: saline with Tween-80) was 129 % of control, the T/C (dose: 0.15 mg/kg/injection, schedule: Q01DX009 (ip), vehicle: saline with Tween-80) was 130 % of control and the T/C (dose: 0.33 mg/kg/injection, schedule: Q01DX009 (ip), vehicle: saline with Tween-80) was 143 % of control. The T/C (dose: 0.5 mg/kg/injection, schedule: Q01DX009 (ip), vehicle: saline with Tween-80) was 139 % of control, the T/C (dose: 0.75 mg/kg/injection, schedule: Q01DX009 (ip), vehicle: saline with Tween-80) was 148 % of control and the survivor count (dose: 25.0 mg/kg/injection, schedule: Q01DX009 (ip), vehicle: saline with Tween-80) was 5 of 6. The survivor count (dose: 50.0 mg/kg/injection, schedule: Q01DX009 (ip), vehicle: saline with Tween-80) was 5 of 6 and the survivor count (dose: 100.0 mg/kg/injection, schedule: Q01DX009 (ip), vehicle: saline with Tween-80) was 5 of 6.
For `COc1cc(C2c3cc(O)c(OC)cc3CC(O)(CO)C2CO)ccc1O` (centres undefined), the survivor count (dose: 380.0 mg/kg/injection, schedule: Q01DX005 (ip), vehicle: Klucel (hydroxypropylcellulose) (HPC)) was 5 of 5.
With `CCOC(OCC)C(=O)OCC(=O)[C@]1(O)Cc2c(O)c3c(c(O)c2[C@@H](OC2CC(N)C(O)C(C)O2)C1)C(=O)c1c(OC)cccc1C3=O` (some centres undefined) the T/C (dose: 0.13 mg/kg/injection, schedule: Q01DX009 (ip), vehicle: saline) was 135 % of control, the T/C (dose: 0.25 mg/kg/injection, schedule: Q01DX009 (ip), vehicle: saline) was 144 % of control and the T/C (dose: 0.5 mg/kg/injection, schedule: Q03HX008 (ip), vehicle: saline) was 126 % of control. The T/C (dose: 1.0 mg/kg/injection, schedule: Q03HX008 (ip), vehicle: saline) was 129 % of control, the T/C (dose: 2.0 mg/kg/injection, schedule: Q03HX008 (ip), vehicle: saline) was 145 % of control and the T/C (dose: 4.0 mg/kg/injection, schedule: Q01DX001 (ip), vehicle: saline) was 137 % of control. The T/C (dose: 8.0 mg/kg/injection, schedule: Q01DX001 (ip), vehicle: saline) was 146 % of control and the survivor count (dose: 8.0 mg/kg/injection, schedule: Q01DX009 (ip), vehicle: saline) was 8 of 8.
In the case of `Cc1ccc(S(=O)(=O)C2(NC(=O)c3ccc(Cl)cc3)CC2)cc1`, the survivor count [3] is reported as 6 of 6 (2×) and the survivor count [4] is reported as 6 of 6.
`C/C=C/N=NNc1ccc(OC)cc1` was tested, and the survivor count (dose: 400.0 mg/kg/injection, schedule: Q04DX003 (ip), vehicle: saline + Tween-80 + alcohol) was 4 of 6.
With `O=[N+]([O-])/C=C/c1c[nH]c2c1ccc1ccccc12` the survivor count (dose: 50.0 mg/kg/injection, schedule: Q01DX005 (ip), vehicle: saline with Tween-80) was 6 of 6.
In the case of `CCCCCCCCCSc1nc2ccc(NC(=O)/C=C/C(=O)O)cc2s1`, the survivor count [5] is reported as 0 of 6.
With `Cc1c(O)ccc(N=O)c1O` the survivor count (dose: 100.0 mg/kg/injection, schedule: Q01DX005 (ip), vehicle: saline with Tween-80) was 0 of 6 and the survivor count [6] was 0 of 6.
In the case of `[Cl][Pt+2][Cl].[NH-]c1cccc(F)c1.[NH-]c1cccc(F)c1`, the survivor count (dose: 25.0 mg/kg/injection, schedule: Q01DX009 (ip), vehicle: Klucel (hydroxypropylcellulose) (HPC)) is reported as 1 of 6 and 3 of 6, the survivor count [7] is reported as 1 of 6 and the survivor count [8] is reported as 0 of 6.
With `CNC(=O)O/N=C/C(C)(C)SC` the survivor count (dose: 0.93 mg/kg/injection, schedule: Q01DX005 (ip), vehicle: Klucel (hydroxypropylcellulose) (HPC)) was 0 of 6, the survivor count (dose: 1.87 mg/kg/injection, schedule: Q01DX005 (ip), vehicle: Klucel (hydroxypropylcellulose) (HPC)) was 0 of 6 and the survivor count (dose: 3.75 mg/kg/injection, schedule: Q01DX005 (ip), vehicle: Klucel (hydroxypropylcellulose) (HPC)) was 0 of 6. For the same molecule, the survivor count (dose: 7.5 mg/kg/injection, schedule: Q01DX005 (ip), vehicle: Klucel (hydroxypropylcellulose) (HPC)) was 0 of 6, the survivor count (dose: 15.0 mg/kg/injection, schedule: Q01DX005 (ip), vehicle: Klucel (hydroxypropylcellulose) (HPC)) was 0 of 6 and the survivor count (dose: 30.0 mg/kg/injection, schedule: Q01DX005 (ip), vehicle: Klucel (hydroxypropylcellulose) (HPC)) was 0 of 6. The survivor count [3] was 0 of 6, the survivor count (dose: 120.0 mg/kg/injection, schedule: Q01DX005 (ip), vehicle: Klucel (hydroxypropylcellulose) (HPC)) was 0 of 6 and the survivor count [4] was 0 of 6.
`C=CCOc1cc2c(cc1Cc1cc(OC)c(OC)c(OC)c1)OCO2` was tested, and the survivor count [2] was 0 of 6.
With `CC1(C)NN=C2C(=CC=C3NNC(C)(C)N32)n2cccc21` the survivor count [6] was 3 of 6.
`NC1=C(O)C(=O)C(c2ccccc2O)O1` (centres undefined) was tested, and the survivor count (dose: 60.0 mg/kg/injection, schedule: Q01DX005 (ip), vehicle: suspension in saline) was 5 of 6.
In the case of `CC(=O)ON=C1C=CC(=C(C#N)c2ccccc2)C=C1`, the survivor count (dose: 200.0 mg/kg/injection, schedule: Q01DX009 (ip), vehicle: saline with Tween-80) is reported as 4 of 6.
In the case of `N#Cc1cc([N+](=O)[O-])cnc1Sc1ncccn1`, the survivor count [7] is reported as 4 of 6, the survivor count [8] is reported as 0 of 6 and the survivor count [5] is reported as 0 of 6.
`Cc1cc2c(=O)cc(-c3ccccc3)oc2c(C(=O)O)c1C` was tested, and the T/C [1] was 128 and 148 % of control and the T/C (dose: 240.0 mg/kg/injection, schedule: Q01DX005 (ip), vehicle: saline with Tween-80) was 138 % of control [5 of 6 alive].
`Br[CH](Br)[Hg][c]1ccccc1` was tested, and the survivor count (dose: 400.0 mg/kg/injection, schedule: Q01DX001 (ip), vehicle: Klucel (hydroxypropylcellulose) (HPC)) was 1 of 6.
`CC(=O)Nc1ccc(S(=O)(=O)CC(N)=O)cc1` was tested, and the survivor count (dose: 100.0 mg/kg/injection, schedule: Q01DX009 (ip), vehicle: suspension in saline) was 6 of 6 and the survivor count (dose: 200.0 mg/kg/injection, schedule: Q01DX009 (ip), vehicle: suspension in saline) was 6 of 6.
For `S=c1n(-c2ccc(Cl)cc2)c2nc3ccccc3nc(/c2=N\Nc2ccccc2)n1-c1ccccn1`, the survivor count [6] was 2 of 6.
In the case of `C1CC2CC3CCCCN3COC2C1` (centres undefined), the survivor count (dose: 400.0 mg/kg/injection, schedule: Q04DX003 (ip), vehicle: saline) is reported as 3 of 6.
With `COc1cccc(C)c1C(O)CC1CCCN1` (centres undefined) the survivor count [5] was 0 of 6.
In the case of `CNC(=S)N/N=C/c1nccc(-c2ccccc2)c1C`, the T/C (dose: 100.0 mg/kg/injection, schedule: Q04DX003 (ip), vehicle: saline with Tween-80) is reported as 137 % of control and the survivor count (dose: 400.0 mg/kg/injection, schedule: Q04DX003 (ip), vehicle: saline with Tween-80) is reported as 3 of 6.
